Library screen at single concentrations

From ChEMBL document CHEMBL3988442, “University of Dundee, Small-Polar-MMV Screening Library” (2021).

The filed quantity is “Percent Effect” (%). The record does not define 0% and 100%; most values in the screen are far below 50% and negative numbers occur (in some assays of this library far below -100). The compounds are a random part of those screened. Two or more numbers in one place are separate tests of the same structure; such repeats can differ widely.

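Growth of Mycobacterium tuberculosis over 3 days (7H9 medium with glucose and tyloxapol); the read-out is not stated. Concentration: 50 µM. The record gives no direction; compounds that gave an IC50 in retests scored well above the rest, so higher reads as more growth inhibition. Size under these conditions: about 69,000 compounds, about 760 of them at 50% or above in at least one test.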

| compound | Percent Effect |
|---|---|
| `CCC1(C)Cc2ccccc2-c2nc(NCCCO)nc(O)c21` (stereo not given) | 21.91 |
| `O=C(O)C(F)(F)F.O=C(O)C(F)(F)F.c1ccc(CN2CCc3ncnc(C4CC4)c3CC2)nc1` | -7.822 |
| `[H][C@@]12CCN(CC3CCOCC3)[C@]1([H])CC[C@H](c1nnc(C)o1)O2` | 23.86 |
| `Cc1cccc(C)c1OCCCN1CCN(CC2CCCO2)CC1` (stereo not given) | 7.221 |
| `CC(C)n1cc(CN2CCCN(C(=O)COC3CCCC3)CC2)cn1` | -39.9 and -11.36 |
| `CN(C)c1ncccc1CNC(=O)N1CCCC1c1ccsc1` (stereo not given) | -3.675 |
| `CN(C)C(=O)CN1CCC2(CCCN(Cc3cccn3C)C2)C1=O.O=C(O)C(F)(F)F` (stereo not given) | -28.79 |
| `Cc1nc(C2CCCN2C(=O)CC2CCCC2)ncc1C(N)=O` (stereo not given) | 8.924 |
| `Cc1cc(C(=O)NS(C)(=O)=O)ccc1I` | 15.76 |
| `CC(O)CN(C(=O)NC1CC1)C(C)C` (stereo not given) | -13.33 and -38.7 |
| `Cc1nc(C2(NCC(=O)NCCc3cccs3)CCCC2)no1` | 9.272 and -2.221 |
| `Nc1nc(N2CCCCCC2)ncc1C(=O)NCc1ccc(F)c(Cl)c1` | 31.95 |
| `CC(C1CCN(Cc2c(Cl)cncc2Cl)CC1)N1CCN(C)CC1` (stereo not given) | -0.8491 and -17.32 |
| `CC(=O)N1CCN(c2cc(C3CCNCC3)ccn2)CC1.Cl.Cl` | 6.197 |
| `COc1cc(N2CCC3(CC2)CNC(=O)CO3)ncn1` | 16.8 |
| `Cl.Cl.O=C(CN1CCN(CC(O)C2CC2)CC1)NCc1ccccc1Cl` (stereo not given) | 3.855 |
| `Cc1cc(C)n2c(CCCNS(=O)(=O)c3ccc(F)cc3)nnc2n1` | 7.87 |
| `Cc1nn(C)c(Cl)c1S(=O)(=O)N(C)C` | -3.972 and -3.949 |
| `CCn1cnnc1C1CCN(C(=O)c2cc(F)ccc2OC)CC1` | 1.387 |
| `CN1CCN(CC2CC2)C(=O)c2cnc(N3CCC(CO)CC3)nc21` | 26.65 |
| `CC(=O)N1CCCC1c1nccnc1Nc1ncccn1` (stereo not given) | 13.65 |
| `CNc1cc(C2CCCN2S(=O)(=O)c2cccc(F)c2)ccn1` (stereo not given) | -4.657 |
| `Cc1ccc(C(C(=O)NCc2n[nH]c(N)n2)N(C)C)cc1` (stereo not given) | -34.73 |
| `CCCn1c(C)c(CC(=O)NCC(N)=O)c2c1CC(C)(C)CC2=O` | -0.4034 |
| `Cn1ccnc1-c1nc(N2CCCCC2)ncc1-c1ccccc1F` | 0.5776 |
| `COCc1noc(-c2cc(Cl)c3c(c2)OCO3)n1` | 3.468 |
| `Cc1nc(C)n(CC2CCCN2CCC(=O)N2CCCCC2)n1` (stereo not given) | -12.15 |
| `CSc1cccc(NC(C)C(=O)Nc2nccs2)c1` (stereo not given) | -8.345 and 6.866 |
| `O=C(c1ccco1)N1CCc2onc(CN3CCCC3)c2C1` | -46.52 and -6.596 |
| `c1nc2c(c(NC3CCc4ncnn4C3)n1)CCC2` (stereo not given) | -14.5 |
| `O=C1CN(CCCNC(=O)Nc2ccccn2)CCN1` | -1.919 |
| `CCCn1cc(CN2CCOCC2c2[nH]ncc2C)cn1` (stereo not given) | -2.616 |
| `Cc1ccc(NC(=O)CCc2ccco2)cc1N1CCOC1=O` | -17.21 |
| `CC[C@@H]1N(Cc2ccco2)CCC[C@]12CCC(=O)N2C.O=C(O)C(F)(F)F` | -39.4 |
| `CN(C(=O)Cc1ccc2c(c1)OCCO2)C1CCCC1` | 14.43 and -2.435 |
| `[H][C@@]12CS(=O)(=O)C[C@]1([H])N(C(=O)CN(C)CC)CCN2Cc1ccccc1` | 9.991 |
| `[H][C@@]12C[C@@H](OCc3ccccc3)C[C@]1([H])CN(Cc1cccnc1)C2` | 19.02 |
| `CCCn1ccnc1-c1cccc(NC(=O)[C@H]2CCC(=O)N2)c1` | 1.14 |
| `CCc1nc(CN(Cc2cccs2)CC2CCCO2)no1` (stereo not given) | 32.54 |
| `Cc1nc(C)n(C2CCCN(C(=O)CCOc3cccc(F)c3)C2)n1` (stereo not given) | 28.72 |
| `COc1cccc2c1OCC(CNc1cc(N)nc(SC)n1)C2` (stereo not given) | 28.49 |
| `O=C(NS(=O)(=O)Cc1ccc(F)cc1)C1CCc2ccccc21` (stereo not given) | 18.15 |
| `O=C(NC1(c2nccs2)CCCC1)c1cc(C2CC2)on1` | 14.15 and 9.98 |
| `CS(=O)(=O)N1CCC(NC(=O)COc2ccc(Br)cc2Cl)CC1` | -15.89 |
| `CCn1ccc(NC(=O)CCn2nc(C)c3ccccc32)n1` | -35.5 |
| `CCN(CC)CCNc1ncc(-c2cc(C)no2)c(-c2ccoc2C)n1` | 13.4 |
| `Cc1nc(-c2ccc(C(=O)O)cc2)cc(C2CCCN(C(C)C)C2)n1` (stereo not given) | -8.843 |
| `CCCS(=O)(=O)c1ncc(CN2CCC(C)CC2)n1CC1CCCO1` (stereo not given) | 12.24 |
| `Cc1c(CCC(=O)Nc2ccc(Cl)cn2)cnn1C` | 9.957 |
| `CN(Cc1cscn1)C1CCN(C(=O)OC(C)(C)C)CC1` | -32.49 |
| `COCCC(=O)Nc1nc2c(OC)cc(F)cc2s1` | 20.83 |
| `Cc1cc(CC(C)NC2CCN(CC(C)C)CC2)[nH]n1` (stereo not given) | -18.17 |
| `COc1cccc(CN2CCC3(COCc4cnc(N(C)C)nc43)C2)c1.O=C(O)C(F)(F)F` (stereo not given) | 44.25 and 5.969 |
| `COc1ccccc1-c1csc(NC(=O)N2CCN(C)CC2C)n1` (stereo not given) | 13.54 and 6.837 |
| `O=C1N(CCCc2ccccc2)CCCC1(O)CNCc1ccccc1` (stereo not given) | 18.72 |
| `Cc1nc(CC(=O)N(C)C2CCCN(CCc3ccccc3)C2)cs1` (stereo not given) | -29.42 and 1.511 |
| `O=C(Nc1cccnc1)Nc1cccc(CN2CCC(O)CC2)c1` | -45.17 |
| `CN1CC(=O)N(c2cccc(F)c2)CC12CCN(Cc1cnn(C)c1)C2.O=C(O)C(F)(F)F.O=C(O)C(F)(F)F` (stereo not given) | -41.18 |
| `CCc1ncc(C(=O)N2CCN(Cc3ncccc3C)CC2)cn1` | -2.464 |
| `Cc1noc(CCCC(=O)N2CCN(C)CC2c2ccccc2)n1` (stereo not given) | -21.24 and -6.375 |
| `Cc1noc(C)c1CCC(=O)N1CCCC(n2ccnc2C)C1` (stereo not given) | -8.64 |
| `COCCOCC(=O)Nc1ccc(C)cc1Cl` | 22.36 |
| `CNCC[C@H]1CC(C)(C)Oc2ccc(OC)cc21` | -24.52 |
| `CCCS(=O)(=O)N1CCOC2(COCCN(C(C)=O)C2)C1` (stereo not given) | -12.1 and -0.7265 |
| `CC(C)C(=O)N1CCN(C(=O)N(C)C)CC2(CC(=O)N(C)C2)C1` (stereo not given) | 1.046 |
| `[H][C@@]12CCC(=O)N(CCc3c[nH]cn3)[C@]1([H])CCN(Cc1c(C)n[nH]c1C)C2` | 2.023 |
| `O=C(O)C(F)(F)F.[H][C@@]12CCCO[C@]1([H])[C@@H](OC)CN2C(=O)c1ccccn1` | -12.84 |
| `Cn1cc(CN2CCCN(CCCc3ccccc3)CC2)cn1` | -12.05 |
| `O=C(O)C(F)(F)F.[H][C@]12CCCN(CC3CCOCC3)[C@@]1([H])CN(C(=O)c1ccco1)C2` | -10.72 |
| `Cc1cnc(N2CCC3(CC(=O)N(Cc4csc(C)n4)C3)C2)nc1.O=C(O)C(F)(F)F` (stereo not given) | 9.318 |
| `Cc1ccc(C(C)(O)CNC(=O)c2sccc2Br)o1` (stereo not given) | 4.131 |
| `Cc1ccccc1CSc1nc(N)cc(N2CCCC(O)C2)n1` (stereo not given) | -13.49 |
| `CC(C)n1c(C2CCCN(CCS(C)(=O)=O)C2)nc2ccccc21` (stereo not given) | 17.55 |
| `CC(Cc1cccc(F)c1)C(=O)NS(=O)(=O)c1cnn(C)c1` (stereo not given) | 0.1327 and -7.397 |
| `COc1ccc(NC(=O)N2CCN(CCSc3ccccc3)CC2)cc1` | 20.78 and 3.429 |
| `O=C(NCC[S+]([O-])c1ccccc1)NCC(F)(F)F` (stereo not given) | -12.74 |
| `Cc1cccc(CN2CCC3(CCN(Cc4ccccn4)C3)C2=O)c1.O=C(O)C(F)(F)F.O=C(O)C(F)(F)F` (stereo not given) | -11.14 |
| `COCC1COCCC12CCN(C(=O)CCc1ccccc1C)CC2` (stereo not given) | -24.8 |
| `CN1CCN(Cc2cnc3n2CCN(C(=O)c2ccccn2)C3)CC1` | 3.231 |
| `CN(Cc1ncc[nH]1)S(=O)(=O)c1cccc(C(=O)N2CCOCC2)c1` | -8.688 and -41.37 |
| `CCC1COCCN1C(=O)NCc1nccn1CC(C)C` (stereo not given) | 8.489 |
| `O=C1CC2(CCN(C(=O)c3ccccn3)C2)Nc2ccccc2N1` (stereo not given) | 15.43 |
| `O=C(c1cccnc1N1CCOCC1)N1CCCC1Cn1cccn1` (stereo not given) | -15.31 |
| `CCCn1ccnc1-c1nccn1CCN(C)C` | 4.021 |
| `CC(C)n1c(C2CCCN(CC(N)=O)C2)nc2ccccc21` (stereo not given) | -3.317 |
| `COCc1cc(N(CC(F)F)C2CC2)n2ncnc2n1` | 17.45 |
| `Cc1ccc(F)cc1S(=O)(=O)N(C)CC(N)=O` | -22.85 |
| `O=C(O)C(F)(F)F.O=C(O)C(F)(F)F.O=C(O)C(F)(F)F.[H][C@@]12CO[C@@H](CN3CCN(C)CC3)[C@]1([H])CCN(Cc1ccc(C)s1)C2` | -7.67 |
| `COCC1c2nnn(CC3CC3)c2CCN1C(=O)c1sccc1C` (stereo not given) | -0.08655 and -10.04 |
| `CCCn1cnnc1CNC(=O)CC1C(=O)NCCN1C(C)C` (stereo not given) | 8.6 |
| `Cc1cnc(C(=O)NCc2cccnc2OC(C)C)cn1` | -2.877 |
| `CNc1nc(C(=O)N2CCCC(CO)(CCCOC)C2)cs1` (stereo not given) | -25.69 |
| `O=C(O)CNc1cc(-c2nccnc2N2CCCC2)c2cc[nH]c2n1` | -52.63 |

Repeated from the top, 8 entries:

* CCC1(C)Cc2ccccc2-c2nc(NCCCO)nc(O)c21 (stereo not given) | 21.91%
* O=C(O)C(F)(F)F.O=C(O)C(F)(F)F.c1ccc(CN2CCc3ncnc(C4CC4)c3CC2)nc1 | -7.822%
* [H][C@@]12CCN(CC3CCOCC3)[C@]1([H])CC[C@H](c1nnc(C)o1)O2 | 23.86%
* Cc1cccc(C)c1OCCCN1CCN(CC2CCCO2)CC1 (stereo not given) | 7.221%
* CC(C)n1cc(CN2CCCN(C(=O)COC3CCCC3)CC2)cn1 | -39.9% and -11.36%
* CN(C)c1ncccc1CNC(=O)N1CCCC1c1ccsc1 (stereo not given) | -3.675%
* CN(C)C(=O)CN1CCC2(CCCN(Cc3cccn3C)C2)C1=O.O=C(O)C(F)(F)F (stereo not given) | -28.79%
* Cc1nc(C2CCCN2C(=O)CC2CCCC2)ncc1C(N)=O (stereo not given) | 8.924%